# Results are given in words; binding and its absence hold for the method and conditions named. In cells and extracts the contact can be indirect. A yes stands for co-enrichment or nearness to the bait. Other partners may have been found.
# Amino acid sequences for entries named in this document (tags omitted).
# UniProt O00255: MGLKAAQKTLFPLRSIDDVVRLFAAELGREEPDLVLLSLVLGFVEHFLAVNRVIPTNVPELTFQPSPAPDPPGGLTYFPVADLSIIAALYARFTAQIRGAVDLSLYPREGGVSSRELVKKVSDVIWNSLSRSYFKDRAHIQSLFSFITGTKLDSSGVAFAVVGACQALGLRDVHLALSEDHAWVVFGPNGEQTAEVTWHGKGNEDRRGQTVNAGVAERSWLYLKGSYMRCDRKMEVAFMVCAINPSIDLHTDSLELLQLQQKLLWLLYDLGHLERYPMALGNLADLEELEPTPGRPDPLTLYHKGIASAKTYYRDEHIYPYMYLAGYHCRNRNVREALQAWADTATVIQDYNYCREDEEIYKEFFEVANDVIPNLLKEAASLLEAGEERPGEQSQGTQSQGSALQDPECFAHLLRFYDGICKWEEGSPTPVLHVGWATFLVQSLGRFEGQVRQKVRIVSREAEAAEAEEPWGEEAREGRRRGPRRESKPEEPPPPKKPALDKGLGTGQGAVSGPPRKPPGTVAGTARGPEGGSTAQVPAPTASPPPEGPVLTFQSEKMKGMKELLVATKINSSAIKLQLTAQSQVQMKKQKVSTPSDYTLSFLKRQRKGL
# UniProt Q9UMN6: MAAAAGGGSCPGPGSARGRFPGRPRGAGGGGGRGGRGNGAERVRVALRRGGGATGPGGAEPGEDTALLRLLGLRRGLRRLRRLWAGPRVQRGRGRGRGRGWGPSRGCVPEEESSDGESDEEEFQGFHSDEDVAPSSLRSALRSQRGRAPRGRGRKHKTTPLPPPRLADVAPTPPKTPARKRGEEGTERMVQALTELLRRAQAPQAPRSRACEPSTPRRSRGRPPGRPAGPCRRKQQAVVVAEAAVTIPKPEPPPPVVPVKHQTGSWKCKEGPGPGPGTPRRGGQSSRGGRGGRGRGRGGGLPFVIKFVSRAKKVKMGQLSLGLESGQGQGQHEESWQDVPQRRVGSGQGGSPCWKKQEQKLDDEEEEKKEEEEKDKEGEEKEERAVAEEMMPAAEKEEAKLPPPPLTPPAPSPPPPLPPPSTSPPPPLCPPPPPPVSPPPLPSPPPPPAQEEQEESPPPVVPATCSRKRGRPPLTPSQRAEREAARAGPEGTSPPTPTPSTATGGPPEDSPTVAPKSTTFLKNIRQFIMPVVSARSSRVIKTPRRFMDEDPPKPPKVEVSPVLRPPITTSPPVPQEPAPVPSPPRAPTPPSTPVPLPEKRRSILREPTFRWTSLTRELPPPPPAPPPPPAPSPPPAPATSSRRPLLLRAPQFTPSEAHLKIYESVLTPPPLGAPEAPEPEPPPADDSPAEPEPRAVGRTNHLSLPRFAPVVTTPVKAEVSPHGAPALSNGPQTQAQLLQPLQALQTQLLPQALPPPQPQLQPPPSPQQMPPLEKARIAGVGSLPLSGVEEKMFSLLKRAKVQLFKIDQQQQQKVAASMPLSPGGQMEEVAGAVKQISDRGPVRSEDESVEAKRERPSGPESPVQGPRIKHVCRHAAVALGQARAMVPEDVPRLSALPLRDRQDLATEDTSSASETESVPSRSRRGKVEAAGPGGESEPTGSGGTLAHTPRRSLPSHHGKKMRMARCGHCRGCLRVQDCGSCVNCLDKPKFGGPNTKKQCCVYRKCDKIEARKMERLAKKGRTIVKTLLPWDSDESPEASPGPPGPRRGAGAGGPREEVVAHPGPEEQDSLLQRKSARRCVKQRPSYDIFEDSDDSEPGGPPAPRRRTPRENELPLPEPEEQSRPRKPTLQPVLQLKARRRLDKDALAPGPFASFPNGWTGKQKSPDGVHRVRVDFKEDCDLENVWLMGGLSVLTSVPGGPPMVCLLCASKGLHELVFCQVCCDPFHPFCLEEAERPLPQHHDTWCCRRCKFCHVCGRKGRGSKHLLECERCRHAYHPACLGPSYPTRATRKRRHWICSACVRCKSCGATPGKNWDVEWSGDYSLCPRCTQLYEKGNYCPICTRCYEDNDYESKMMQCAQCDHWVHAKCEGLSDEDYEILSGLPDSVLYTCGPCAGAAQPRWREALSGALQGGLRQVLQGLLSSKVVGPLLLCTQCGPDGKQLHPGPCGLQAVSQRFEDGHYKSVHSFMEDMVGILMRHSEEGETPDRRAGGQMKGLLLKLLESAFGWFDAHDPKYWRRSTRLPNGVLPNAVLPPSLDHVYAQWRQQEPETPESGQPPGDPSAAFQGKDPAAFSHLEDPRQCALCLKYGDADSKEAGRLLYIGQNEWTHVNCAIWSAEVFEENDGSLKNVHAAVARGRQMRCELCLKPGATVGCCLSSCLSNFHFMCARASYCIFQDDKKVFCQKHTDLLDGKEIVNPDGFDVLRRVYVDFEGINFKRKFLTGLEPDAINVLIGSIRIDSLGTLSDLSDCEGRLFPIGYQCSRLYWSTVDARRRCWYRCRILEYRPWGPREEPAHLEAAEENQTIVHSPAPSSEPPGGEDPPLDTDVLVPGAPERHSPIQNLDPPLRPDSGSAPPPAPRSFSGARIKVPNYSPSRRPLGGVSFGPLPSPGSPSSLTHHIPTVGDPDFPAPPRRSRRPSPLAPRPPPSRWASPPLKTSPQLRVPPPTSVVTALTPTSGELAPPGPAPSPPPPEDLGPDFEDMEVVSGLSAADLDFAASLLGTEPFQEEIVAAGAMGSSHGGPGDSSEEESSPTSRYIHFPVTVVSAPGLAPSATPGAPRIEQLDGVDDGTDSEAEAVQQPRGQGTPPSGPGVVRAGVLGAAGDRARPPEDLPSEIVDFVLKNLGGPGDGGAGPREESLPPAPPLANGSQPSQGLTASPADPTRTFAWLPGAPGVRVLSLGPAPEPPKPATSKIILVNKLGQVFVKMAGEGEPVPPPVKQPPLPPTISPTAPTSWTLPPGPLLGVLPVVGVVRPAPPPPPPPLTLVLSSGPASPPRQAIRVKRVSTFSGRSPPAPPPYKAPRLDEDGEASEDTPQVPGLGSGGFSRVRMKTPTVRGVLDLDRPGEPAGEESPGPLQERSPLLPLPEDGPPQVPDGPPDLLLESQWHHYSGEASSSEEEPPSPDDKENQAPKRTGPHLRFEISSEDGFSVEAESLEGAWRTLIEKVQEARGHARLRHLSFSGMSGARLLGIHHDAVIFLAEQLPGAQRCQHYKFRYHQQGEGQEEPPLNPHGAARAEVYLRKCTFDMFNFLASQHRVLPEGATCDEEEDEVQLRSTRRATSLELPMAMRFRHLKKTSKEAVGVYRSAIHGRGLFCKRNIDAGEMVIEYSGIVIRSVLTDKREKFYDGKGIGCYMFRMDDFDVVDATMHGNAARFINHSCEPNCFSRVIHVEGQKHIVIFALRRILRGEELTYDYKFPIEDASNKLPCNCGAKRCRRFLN
# Target: menin (endogenous, immunoprecipitated from 293T cells) (human (endogenous in 293T)) (UniProt O00255)
# Test: affinity purification with mass spectrometry; endogenous menin immunoprecipitated from 293T cells, untreated, 6 hours after 1000 Rads γ-IR or 2 hours after 25 J/m^2 UV; prominent bands excised for mass spectrometry
row,Substance,binding
1,KMT2A (MLL) (from UniProt Q03164 1-3969),binds
2,KMT2D (MLL4 originally known as MLL2) (from UniProt Q9UMN6 1-2715),binds

# — paper PMC3021530
